The record followed here is PMC8887472.

Amino acid sequences for entries named in this document (tags omitted).
UniProt P0CAP2: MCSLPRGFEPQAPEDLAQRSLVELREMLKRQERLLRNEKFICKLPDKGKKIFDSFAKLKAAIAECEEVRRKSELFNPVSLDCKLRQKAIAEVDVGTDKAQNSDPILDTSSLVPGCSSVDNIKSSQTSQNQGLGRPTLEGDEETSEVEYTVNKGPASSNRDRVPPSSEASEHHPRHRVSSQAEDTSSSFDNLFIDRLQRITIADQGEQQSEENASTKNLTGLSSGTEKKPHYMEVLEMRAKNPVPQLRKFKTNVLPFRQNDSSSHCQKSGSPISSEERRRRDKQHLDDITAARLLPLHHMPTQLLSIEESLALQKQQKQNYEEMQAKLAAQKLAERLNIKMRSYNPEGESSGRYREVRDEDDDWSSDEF
UniProt Q8IXW5: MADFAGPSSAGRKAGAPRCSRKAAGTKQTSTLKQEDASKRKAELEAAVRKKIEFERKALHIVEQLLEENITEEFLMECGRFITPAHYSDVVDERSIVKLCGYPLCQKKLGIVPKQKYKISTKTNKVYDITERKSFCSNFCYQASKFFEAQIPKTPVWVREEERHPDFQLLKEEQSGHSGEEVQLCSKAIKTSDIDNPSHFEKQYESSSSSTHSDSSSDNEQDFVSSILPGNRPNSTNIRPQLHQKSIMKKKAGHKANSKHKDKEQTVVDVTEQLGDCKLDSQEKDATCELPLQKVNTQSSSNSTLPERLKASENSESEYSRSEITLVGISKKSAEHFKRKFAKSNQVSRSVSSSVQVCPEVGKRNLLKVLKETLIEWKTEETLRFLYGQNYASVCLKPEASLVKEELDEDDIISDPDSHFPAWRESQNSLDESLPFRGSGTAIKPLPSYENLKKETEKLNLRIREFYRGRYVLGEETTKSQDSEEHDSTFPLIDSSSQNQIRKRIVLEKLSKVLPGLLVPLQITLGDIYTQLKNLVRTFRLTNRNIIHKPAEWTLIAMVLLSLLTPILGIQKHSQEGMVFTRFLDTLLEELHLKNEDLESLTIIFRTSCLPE
UniProt Q9UHW5: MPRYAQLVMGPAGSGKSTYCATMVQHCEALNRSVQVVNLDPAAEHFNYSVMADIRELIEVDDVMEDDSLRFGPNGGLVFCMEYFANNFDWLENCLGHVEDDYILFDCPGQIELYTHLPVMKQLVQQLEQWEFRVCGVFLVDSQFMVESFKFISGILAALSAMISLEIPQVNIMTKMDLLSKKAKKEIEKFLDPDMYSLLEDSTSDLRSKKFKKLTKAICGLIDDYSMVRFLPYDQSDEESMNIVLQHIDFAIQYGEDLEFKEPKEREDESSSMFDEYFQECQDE

The assay addresses eGFP-TEV-Gdown1 (human (endogenous in HAP1)) (UniProt P0CAP2). The experiment in a line: affinity purification with mass spectrometry; GFP-Trap agarose IP from clarified lysate of eGFP-TEV-Gdown1 HAP1 cells (20 mM Tris pH 7.8, 150 mM NaCl, 0.5% IGEPAL CA-360, 0.1 mM EDTA, 1 mM DTT), 1 h at 4°C; complexes eluted by TEV digestion; LC-MS.

These are yes or no findings as the source states them, for the method shown. In cells and extracts the contact can be indirect. A yes stands for co-enrichment or nearness to the bait. Other partners may have been found.

Take RPAP2 (from UniProt Q8IXW5 1-612): the binding entry is reported as “binds”. For GPN3 (from UniProt Q9UHW5 1-284), the binding entry is given as “binds”.
